Data taken from publication PMC10994853.
Where two headings read alike, the source gives them in different places. Results are given in words; binding and its absence hold for the method and conditions named. Binding calls can cover weak binding; strength is not graded here.

By UniProt entry, the sequences of proteins in these tests, tags left out. Where a name states a change or a piece, a line headed by the entry shows the natural chain unless it says otherwise.
UniProt Q5I6C7: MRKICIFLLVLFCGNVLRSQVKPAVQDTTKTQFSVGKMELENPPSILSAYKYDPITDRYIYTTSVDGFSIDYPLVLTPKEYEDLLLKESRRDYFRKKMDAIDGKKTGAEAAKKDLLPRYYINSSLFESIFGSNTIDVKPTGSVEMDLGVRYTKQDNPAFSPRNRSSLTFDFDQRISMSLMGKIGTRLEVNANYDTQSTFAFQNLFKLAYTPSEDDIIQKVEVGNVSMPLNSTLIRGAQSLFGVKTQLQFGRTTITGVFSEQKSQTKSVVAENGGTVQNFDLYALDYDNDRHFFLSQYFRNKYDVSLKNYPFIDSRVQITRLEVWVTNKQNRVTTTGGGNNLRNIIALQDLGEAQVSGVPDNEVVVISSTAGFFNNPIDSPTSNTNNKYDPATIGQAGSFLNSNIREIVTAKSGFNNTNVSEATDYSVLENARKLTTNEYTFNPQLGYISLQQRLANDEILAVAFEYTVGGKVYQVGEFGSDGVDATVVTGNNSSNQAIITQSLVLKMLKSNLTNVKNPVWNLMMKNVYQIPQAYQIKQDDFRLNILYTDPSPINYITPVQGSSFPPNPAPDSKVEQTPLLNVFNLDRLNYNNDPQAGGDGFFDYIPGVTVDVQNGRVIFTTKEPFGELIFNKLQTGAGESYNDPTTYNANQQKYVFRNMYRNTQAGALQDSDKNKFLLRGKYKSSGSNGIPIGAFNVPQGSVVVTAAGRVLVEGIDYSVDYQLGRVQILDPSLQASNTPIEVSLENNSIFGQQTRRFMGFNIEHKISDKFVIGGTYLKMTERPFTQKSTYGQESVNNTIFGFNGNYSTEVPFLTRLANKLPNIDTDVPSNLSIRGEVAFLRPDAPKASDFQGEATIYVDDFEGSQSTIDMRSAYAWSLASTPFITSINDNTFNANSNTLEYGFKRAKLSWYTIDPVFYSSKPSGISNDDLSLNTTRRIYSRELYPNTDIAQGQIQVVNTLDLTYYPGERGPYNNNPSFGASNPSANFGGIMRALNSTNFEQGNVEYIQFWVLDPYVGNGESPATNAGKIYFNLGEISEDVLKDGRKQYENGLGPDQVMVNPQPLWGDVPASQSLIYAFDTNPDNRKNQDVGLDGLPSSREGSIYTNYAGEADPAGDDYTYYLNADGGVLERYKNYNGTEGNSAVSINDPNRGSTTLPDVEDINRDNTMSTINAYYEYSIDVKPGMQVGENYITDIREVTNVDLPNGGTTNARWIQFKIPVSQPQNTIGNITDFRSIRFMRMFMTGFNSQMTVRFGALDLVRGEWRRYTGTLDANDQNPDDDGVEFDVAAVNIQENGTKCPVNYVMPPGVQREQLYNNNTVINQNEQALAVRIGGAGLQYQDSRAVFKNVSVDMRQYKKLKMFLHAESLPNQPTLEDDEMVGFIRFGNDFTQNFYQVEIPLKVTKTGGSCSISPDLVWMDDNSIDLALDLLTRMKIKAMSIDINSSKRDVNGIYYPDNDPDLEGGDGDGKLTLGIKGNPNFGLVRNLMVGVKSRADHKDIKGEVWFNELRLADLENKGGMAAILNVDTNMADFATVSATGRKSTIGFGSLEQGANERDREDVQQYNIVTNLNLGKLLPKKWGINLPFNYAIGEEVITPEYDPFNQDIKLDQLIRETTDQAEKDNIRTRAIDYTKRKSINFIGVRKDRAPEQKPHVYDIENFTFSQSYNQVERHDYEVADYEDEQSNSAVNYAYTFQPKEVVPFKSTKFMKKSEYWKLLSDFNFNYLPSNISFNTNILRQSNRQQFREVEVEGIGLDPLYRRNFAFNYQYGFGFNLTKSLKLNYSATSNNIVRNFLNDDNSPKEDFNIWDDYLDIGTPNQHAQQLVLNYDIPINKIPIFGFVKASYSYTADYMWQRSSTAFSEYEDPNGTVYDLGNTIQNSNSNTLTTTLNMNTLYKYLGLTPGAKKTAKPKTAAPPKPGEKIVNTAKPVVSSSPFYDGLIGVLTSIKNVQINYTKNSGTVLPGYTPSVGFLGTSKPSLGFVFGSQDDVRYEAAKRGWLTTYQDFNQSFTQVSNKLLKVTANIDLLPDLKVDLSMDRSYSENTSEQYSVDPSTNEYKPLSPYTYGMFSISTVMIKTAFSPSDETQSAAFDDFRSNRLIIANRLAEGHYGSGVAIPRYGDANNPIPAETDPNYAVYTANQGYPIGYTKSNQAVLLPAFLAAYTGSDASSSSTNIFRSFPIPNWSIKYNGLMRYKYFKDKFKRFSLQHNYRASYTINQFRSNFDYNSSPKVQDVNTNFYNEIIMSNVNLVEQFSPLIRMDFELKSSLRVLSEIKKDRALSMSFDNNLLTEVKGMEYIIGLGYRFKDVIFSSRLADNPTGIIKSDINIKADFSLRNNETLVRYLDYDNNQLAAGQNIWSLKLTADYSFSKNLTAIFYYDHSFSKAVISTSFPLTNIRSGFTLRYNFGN
UniProt A5FAQ0: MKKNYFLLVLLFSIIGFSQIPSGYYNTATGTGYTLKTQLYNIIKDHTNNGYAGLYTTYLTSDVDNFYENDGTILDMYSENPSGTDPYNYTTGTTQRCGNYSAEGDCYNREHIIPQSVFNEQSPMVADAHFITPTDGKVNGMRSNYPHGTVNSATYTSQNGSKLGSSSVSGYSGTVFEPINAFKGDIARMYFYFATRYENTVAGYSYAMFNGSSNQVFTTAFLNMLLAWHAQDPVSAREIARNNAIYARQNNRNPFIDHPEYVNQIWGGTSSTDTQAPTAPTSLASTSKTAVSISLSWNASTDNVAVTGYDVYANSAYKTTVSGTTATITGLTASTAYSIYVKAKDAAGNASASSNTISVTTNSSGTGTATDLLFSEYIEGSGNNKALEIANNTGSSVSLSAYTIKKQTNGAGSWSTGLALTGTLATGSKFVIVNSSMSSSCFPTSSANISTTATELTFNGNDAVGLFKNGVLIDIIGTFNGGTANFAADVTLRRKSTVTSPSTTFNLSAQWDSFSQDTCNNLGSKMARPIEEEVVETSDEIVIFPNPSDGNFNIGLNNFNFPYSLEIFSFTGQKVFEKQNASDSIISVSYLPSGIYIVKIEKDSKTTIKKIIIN

Key:
[1] = biological target: Twin-strep–SprA lacking its N terminus, sprA(Δnterm) (Flavobacterium johnsoniae) (UniProt Q5I6C7); assay: cryo-EM structure; substrate-bound PorV complexes trapped in vivo: Twin-strep–SprA complexes from ΔgldL peak II, ΔgldLΔsprE, ΔgldL sprA(Δnterm), ΔgldLΔskpA, ΔsprE and ΔgldM backgrounds, in LMNG
[2] = biological target: PorV (Flavobacterium johnsoniae (endogenous)); assay: cryo-EM structure; Extended Translocon, peak I of Twin-strep–SprA complexes from a ΔgldL background (also seen at 4.3 Å from ΔgldM peak I); assembled in vivo, in LMNG
[3] = biological target: Twin-strep-tagged SprA (Flavobacterium johnsoniae); assay: as above
[4] = biological target: PorV (Flavobacterium johnsoniae (endogenous)); assay: cryo-EM structure; substrate-bound PorV complexes trapped in vivo: Twin-strep–SprA complexes from ΔgldL peak II, ΔgldLΔsprE, ΔgldL sprA(Δnterm), ΔgldLΔskpA, ΔsprE and ΔgldM backgrounds, in LMNG
[5] = biological target: Twin-strep-tagged SprA (Flavobacterium johnsoniae); assay: as above
[6] = biological target: Twin-strep–SprA lacking its N terminus, sprA(Δnterm) (Flavobacterium johnsoniae) (UniProt Q5I6C7); assay: as above; remark: listed apart in the source

Row | binding [1] | binding [2] | binding [3] | binding [4] | binding [5] | binding [6] | Molecule
1 | binds | – | – | – | – | – | NucA (Fjoh_4723) (from UniProt A5FAQ0)
2 | – | binds | binds | binds | binds | binds | RemZ (Fjoh_0803) (protein, UniProt A5FLT3 1-1114) MDVQAWGGGGAGGGASGAVLDGRAAAGGGGGAYARSNITVAAGATLNASVAGTTTNALVSGAAVNGAAGGSSTILGFETSILALGGGGGGANNAGGTPAGGAGGSAASSVGNVSKLDGAAGGNGVTGAIGLLTVSGAGGTAGGGGGAGGAGVASVALGNGPGNAGTAPGGGGSGAMQSLLGGAQIGGSGAAGRVIITYTCPTYSITGISAANVCNSVGTTSVVTLTSSGGGLPIGPYVVTYNRSNPSGTGLTAIMNVTTPGTGTFTAAGLNVIGTSNITVTNLTSAACSSNISTNNVASLTVFAATVGGTLAGTATVCSGATSGTLTLSGQTGSIIKWESSVSPFTVWTTIPNTTNTYTSGALTETSQFRAVIQNGNCAVVNSSIATITVNPLPQGSLSANGPFCVTGSGQLTFTATAGTGPYTIVYKENGGADRTAANISSGVAFPTFTTPVTTTTVYTLVSVTGANTCSRSSGFTNNTATITVNSRIATPGFGTVTQPDCVTSTGSVVLTGLPAGSWTITQSGTASQTYNSSGTTYTISNLAVGNYTFTVQDAANCPSLATSTLTLIAPVVNIWNGTSWSKGSPPISTDVVRFSGNYSTTGNLSGCSLIVDSGFTVTVNSNHTLTISNAVTNNGGQLIFENNSSLLQTNNVTNVGNITYKRITPPVRRYDLTYWSSPITRTPPFTLYDLSPGTLADKYYSYDPVAGWVISFNGTQQMVPGRGYVVRAPQTNDLNTGANYLGAFVGVPNNGPISVSLGTAEAFQLLGNPYPSAIYADQFIANNSANLYGTLYFWTHNSLPSSSTPGGAQYNYDNNDYAVYNLSGSIIVGGMTGQGATTPGNQSAPLGYIAAGQGFFVVSKTAGNAVFTNSMRVAANNTQFYKTNKSAIERHRVWINLTNTQGAFKQLLIGYIEGATNFWDHNYDAITADANPHLDFYSINEGQNLVIQGRSLPFNESDVVPLGYRSAIAGEFSISLDHADGDLTNHAVYLEDKLTNTLHNLQTSNYTFNTAIGTFSDRFVIRYTTATLGTDDFENQTNSFYVSVKDKTIKLNSTEDVMREVSIFDISGKLLYNNKKVENTEFQVSNFQSGNQVLIVKVTLDNGNIITKKIVFN
